The target in this assay is Myc-HIF-1α (hypoxia-inducible factor 1 α) (UniProt Q16665). Nature of the assay: co-IP; exogenous co-IP in 293T cells co-transfected with tagged UHRF1 and HIF-1α plasmids (whole or truncated), forward and reverse; 1000 µg lysate protein, 2 µg primary antibody overnight at 4 °C, Protein A/G beads, IgG as negative control.

The chains behind the UniProt entries cited, without tags or fusion partners.
UniProt Q16665: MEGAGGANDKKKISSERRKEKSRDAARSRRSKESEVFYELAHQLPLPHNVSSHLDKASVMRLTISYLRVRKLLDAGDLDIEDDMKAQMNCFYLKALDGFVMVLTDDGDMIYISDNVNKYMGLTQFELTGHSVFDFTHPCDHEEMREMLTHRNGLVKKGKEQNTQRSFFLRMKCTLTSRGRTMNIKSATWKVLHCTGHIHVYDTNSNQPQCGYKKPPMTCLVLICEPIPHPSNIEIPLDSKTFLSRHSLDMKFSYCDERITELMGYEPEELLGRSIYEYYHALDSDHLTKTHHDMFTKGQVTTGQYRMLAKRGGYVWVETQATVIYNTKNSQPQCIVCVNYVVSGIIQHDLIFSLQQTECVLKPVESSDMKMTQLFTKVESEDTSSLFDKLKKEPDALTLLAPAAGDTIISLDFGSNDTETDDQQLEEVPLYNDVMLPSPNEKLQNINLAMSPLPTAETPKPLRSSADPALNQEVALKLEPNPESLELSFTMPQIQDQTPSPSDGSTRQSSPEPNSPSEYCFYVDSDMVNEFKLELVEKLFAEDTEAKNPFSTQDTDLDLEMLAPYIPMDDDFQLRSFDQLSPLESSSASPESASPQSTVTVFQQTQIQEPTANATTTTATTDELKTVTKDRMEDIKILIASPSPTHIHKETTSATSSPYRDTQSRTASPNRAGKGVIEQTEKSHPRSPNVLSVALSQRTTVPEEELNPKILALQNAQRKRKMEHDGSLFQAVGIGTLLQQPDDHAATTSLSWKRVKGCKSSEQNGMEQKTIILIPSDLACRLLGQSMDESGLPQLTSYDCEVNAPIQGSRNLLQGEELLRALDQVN

No constants are given. Whether binding was seen depends on the method and setting. In cells and extracts the contact can be indirect. Some entries that bind do so weakly or less than the wild type. Tags and fused reporters may be left off the sequences shown.

B1: Flag-UHRF1 (Ubiquitin-like PHD and RING finger domain-containing protein 1) (protein, UniProt Q96T88 1-793)
chain: MWIQVRTMDGRQTHTVDSLSRLTKVEELRRKIQELFHVEPGLQRLFYRGKQMEDGHTLFDYEVRLNDTIQLLVRQSLVLPHSTKERDSELSDTDSGCCLGQSESDKSSTHGEAAAETDSRPADEDMWDETELGLYKVNEYVDARDTNMGAWFEAQVVRVTRKAPSRDEPCSSTSRPALEEDVIYHVKYDDYPENGVVQMNSRDVRARARTIIKWQDLEVGQVVMLNYNPDNPKERGFWYDAEISRKRETRTARELYANVVLGDDSLNDCRIIFVDEVFKIERPGEGSPMVDNPMRRKSGPSCKHCKDDVNRLCRVCACHLCGGRQDPDKQLMCDECDMAFHIYCLDPPLSSVPSEDEWYCPECRNDASEVVLAGERLRESKKKAKMASATSSSQRDWGKGMACVGRTKECTIVPSNHYGPIPGIPVGTMWRFRVQVSESGVHRPHVAGIHGRSNDGAYSLVLAGGYEDDVDHGNFFTYTGSGGRDLSGNKRTAEQSCDQKLTNTNRALALNCFAPINDQEGAEAKDWRSGKPVRVVRNVKGGKNSKYAPAEGNRYDGIYKVVKYWPEKGKSGFLVWRYLLRRDDDEPGPWTKEGKDRIKKLGLTMQYPEGYLEALANREREKENSKREEEEQQEGGFASPRTGKGKWKRKSAGGGPSRAGSPRRTSKKTKVEPYSLTAQQSSLIREDKSNAKLWNEVLASLKDRPASGSPFQLFLSKVEETFQCICCQELVFRPITTVCQHNVCKDCLDRSFRAQVFSCPACRYDLGRSYAMQVNQPLQTVLNQLFPGYGNGR
In the case of B1, the binding result is given as “binds”.

Source of the values: publication PMC12552473.
